Assay results: US20180318440A1 (US Dept. of Health and Human Services, published 2018)
Results are given in words; binding and its absence hold for the method and conditions named. Some binding calls cover weakened binding; strength is not graded here.

Key:
[1] = biological target: cell surface human FGFR4 (full-length human wild type FGFR4) (human) (UniProt P22455); test: flow cytometry of surface-bound mAb, saturating amount of mAb, RD cells
[2] = biological target: cell surface human FGFR4 (full-length human wild type FGFR4) (human) (UniProt P22455); test: flow cytometry, RMS772-FGFR4 cells, 1 ug/mL mAb
[3] = biological target: T1, human FGFR4 protein (antigen of the ELISA, form not stated) (human) (UniProt P22455); test: ELISA
T1 sequence (looked up): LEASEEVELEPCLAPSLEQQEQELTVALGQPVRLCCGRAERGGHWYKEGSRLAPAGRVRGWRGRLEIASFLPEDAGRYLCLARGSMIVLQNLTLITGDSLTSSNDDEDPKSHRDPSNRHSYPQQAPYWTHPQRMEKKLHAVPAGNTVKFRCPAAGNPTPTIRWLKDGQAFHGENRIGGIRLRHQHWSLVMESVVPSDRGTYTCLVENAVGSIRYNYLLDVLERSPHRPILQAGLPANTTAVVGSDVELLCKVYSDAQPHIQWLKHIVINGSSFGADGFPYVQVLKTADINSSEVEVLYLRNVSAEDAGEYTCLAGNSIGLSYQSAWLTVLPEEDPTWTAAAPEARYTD

[4] = biological target: cell surface human FGFR4 (full-length human wild type FGFR4) (human) (UniProt P22455); test: flow cytometry
[5] = biological target: T1, human FGFR4 protein (antigen of the ELISA, form not stated) (human); test: ELISA (column 'Assay Positive')
[6] = biological target: cell surface human FGFR4 (full-length human wild type FGFR4) (human) (UniProt P22455); test: flow cytometry titration on RMS cell lines, 0-10 ug/ml
[7] = biological target: cell surface human FGFR4 (full-length human wild type FGFR4) (human) (UniProt P22455); test: flow cytometry, 1 ug/mL mAb and fluorochrome-conjugated secondary antibody, RMS772-FGFR4 cells against RMS772-puro vector cells
[8] = biological target: cell surface human FGFR4 (full-length human wild type FGFR4) (human) (UniProt P22455); test: flow cytometry on RD (ERMS) and RH30 (ARMS) cells
[9] = biological target: cell surface human FGFR4 (full-length human wild type FGFR4) (human) (UniProt P22455); test: flow cytometry of surface-bound mAb, saturating amount of mAb, RH30 cells
[10] = biological target: cell surface human FGFR4 (full-length human wild type FGFR4) (human) (UniProt P22455); test: flow cytometry (column 'Assay Positive')
[11] = biological target: cell surface human FGFR4 (full-length human wild type FGFR4) (human) (UniProt P22455); test: flow cytometry titration on RH30 and RD cells, 0-10 ug/ml
[12] = biological target: cell surface human FGFR4 (full-length human wild type FGFR4) (human) (UniProt P22455); test: IHC on tissue microarrays: Rh30, Rh41, Rh18 and Rh36 xenograft tissue and RMS tumors

Measured: binding

B1: 29.2 rabbit anti-FGFR4 mAb (antibody, V domains shown)
VH: QSVKESEGRLVTPGTPLTLTCTVSGFSLSSNSVGWVRQAPGKGLEWIGIISSSGNRYYASWAKGRFTISKTSTTVDLKITSPTTEDTATYFCGGDPVSWYGDIWGPGTLVTVSS
VL: ELVLTQTPSSVSAAVGGTVTINCQSSPSLYKNNYLSWYQQKPGQPPKLLIYSASTLASGVPSRFKGSGSGTEYTLTISGVQCDDAATYYCLGGYSLSSDSPRAFGGGTEVVVK
binds: [1] | [2] | [3] | [4] | [5] | [6] | [7] | [8] | [9] | [10] | [11] | [12]

B2: 57.1 rabbit anti-FGFR4 mAb (antibody, V domains shown)
VH: QSVKESEGRLVTPGTPLTLTCTVSGFSLSTYAMSWVRQAPEKGLEWIGIIYATAETYYATWARGRFTISKTSTTVDLKITSPATEDTATYFCARLNGDGSGTYAYDIWGPGTLVTVSS
VL: ELVMTQTPSPVSAAVGGTVTINCQASQSISSSYLSWYQQKPGQPPKLLIYKASTRPSGVSSRFKGSGSGTQFTLTISGVQCADAATYYCLYGYYIDSGADNSFGGGTEVVVK
binds: [3] | [4] | [5] | [10]

B3: 1G5 mouse anti-FGFR4 mAb (antibody, V domains shown)
VH: QVQLQQSGAELVRPGASVTLSCKASGYTFTDYEMHWVKKIPVYGLEWIGAIDPETYGTAYNQKFKGKATLTADKSSSTAYMEVRSLTSEDSAVYYCTRGGYYGSDFDYWGQGTTLTVSS
VL: DIQMNQSPSSLSASLGDTITITCHASQNINVWLSWYQQKPGNIPKLLIYKASNLHTGVPSRFSGSGSGTGFTLTISSLQPEDIATYYCQQGQSYPWTFGGGTKLEIK
binds: [3] | [4] | [5] | [10]
